PubChem BioAssay AID1224830, NIAID, 2016
The whole screen tested about 18,000 reagents; below is a random part of them. About 2,900 of them (16%) were called active. 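Calls are made per well; low scores hint the gene aids the LPS response, high scores that it dampens it.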 A number with no mark means an inactive call. Repeated entries: four replicate wells of each siRNA pool.

Purpose: 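Regulators of TLR4 signalling towards TNF-alpha in macrophage-like cells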 (primary screen)
Cell system: human THP-1 monocytic leukaemia cells, TNF dual-luciferase reporter clone, PMA-differentiated to macrophage-like cells
Reagents: siRNA pool against human genes, 50 nM
Time to read-out: LPS for 4 h, given about 3 days after siRNA transfection
Treatment: bacterial LPS (TLR4 ligand), 10 ng/ml
Detection: 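TNF firefly reporter luminescence divided by renilla, normalised to the plate median, then turned into a robust z-score for each replicate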
Reading the numbers: TNF reporter robust z-score: higher = stronger TNF reporter response to LPS
Rule for the call: 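Each well counts as active if its z-score is over 2.8 or under -1.5; controls are left without a call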

With ADARB2, what was measured?
TNF reporter robust z-score: 0.59

With ADARB2, how do the results read?
TNF reporter robust z-score: -0.65

How did the screen score ADARB2?
TNF reporter robust z-score: -0.57

What is on record for ADARB2?
TNF reporter robust z-score: -0.86

How did the screen score NCOR1?
TNF reporter robust z-score: 0.88

What is on record for NCOR1?
TNF reporter robust z-score: 0.62

For NCOR1, what was measured?
TNF reporter robust z-score: -0.07

With NCOR1, how do the results read?
TNF reporter robust z-score: 1.33

2 of these entries, reformatted.
target gene | TNF reporter robust z-score
ADARB2 | -0.86
NCOR1 | 0.88

Additional records follow.
What is on record for TRAPPC8?
TNF reporter robust z-score: 1.92

With TRAPPC8, what does the deposit list?
TNF reporter robust z-score: 1.8

What is on record for TRAPPC8?
TNF reporter robust z-score: 1.42

With TRAPPC8, how do the results read?
TNF reporter robust z-score: 2.65

What is on record for RPL37?
TNF reporter robust z-score: -1.3

With RPL37, what does the deposit list?
TNF reporter robust z-score: -1.11

What did the screen give for RPL37?
TNF reporter robust z-score: -1.53 (active)

What is on record for RPL37?
TNF reporter robust z-score: -1.12

How did the screen score ZNF175?
TNF reporter robust z-score: -0.14

With ZNF175, how do the results read?
TNF reporter robust z-score: 0.74

How did the screen score ZNF175?
TNF reporter robust z-score: -0.38

How did the screen score ZNF175?
TNF reporter robust z-score: -0.19
